Values of other authors in publication PMC8557888, “Intracellular Accumulation of Novel and Clinically Used TB Drugs Potentiates Intracellular Synergy” (Microbiology Spectrum, 2021).

Settings: cited from earlier work

SMILES: O=C(O)c1cn(C2CC2)c2cc(N3CCNCC3)c(F)cc2c1=O [ciprofloxacin]
- log ratio ELF/plasma: −0.2
